# The list shows a part of the results.
# B1: pTFF2 (Sus scrofa), P01359 (protein)
# chain: KPAACRCSRQDPKNRVNCGFPGITSDQCFTSGCCFDSQVPGVPWCFKPLPAQESEECVMEVSARKNCGYPGISPEDCAARNCCFSDTIPEVPWCFFPMSVEACHY
# Legend:
# Test in all cases: glycan array binding signal (z-score within array); higher = stronger binding
# Settings in all cases: glycan notation: IUPAC condensed, linker removed
# [1] = biological target: Neu5Ac(a2-3)Gal(b1-4)GlcNAc(b1-3)[Neu5Ac(a2-3)Gal(b1-4)GlcNAc(b1-6)]GalNAc
# Outline: (§1)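 Glycan array binding is given as a within-array Z-score, which can be read as non-binding when negative. The arrays, 3228 of them, came from the Consortium for Functional Glycomics database and were retained only where the protein sequence was available. Z-scores were averaged across arrays of the same protein sequence at different concentrations or buffers and across linkers.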
# [2] = biological target: Neu5Ac(a2-3)Gal(b1-4)GlcNAc(b1-6)GalNAc
# Outline: as §1
# [3] = biological target: Neu5Ac(a2-3)Gal(b1-4)GlcNAc(b1-6)[Gal(b1-3)]GalNAc
# Outline: as §1
# [4] = biological target: Neu5Ac(a2-3)Gal(b1-4)GlcNAc(b1-6)[Neu5Ac(a2-3)Gal(b1-3)]GalNAc
# Outline: as §1
# [5] = biological target: Neu5Ac(a2-3)Gal(b1-4)GlcNAc6S
# Outline: as §1
# [6] = biological target: Neu5Ac(a2-3)Gal(b1-4)[Fuc(a1-3)]GlcNAc
# Outline: as §1
# [7] = biological target: Neu5Ac(a2-3)Gal(b1-4)[Fuc(a1-3)]GlcNAc(b1-2)Man
# Outline: as §1
# [8] = biological target: Neu5Ac(a2-3)Gal(b1-4)[Fuc(a1-3)]GlcNAc(b1-3)Gal
# Outline: as §1
# [9] = biological target: Neu5Ac(a2-3)Gal(b1-4)[Fuc(a1-3)]GlcNAc(b1-3)Gal(b1-4)GlcNAc
# Outline: as §1
# [10] = biological target: Neu5Ac(a2-3)Gal(b1-4)[Fuc(a1-3)]GlcNAc(b1-3)Gal(b1-4)[Fuc(a1-3)]GlcNAc(b1-3)Gal(b1-4)[Fuc(a1-3)]GlcNAc
# Outline: as §1
# [11] = biological target: Neu5Ac(a2-3)Gal(b1-4)[Fuc(a1-3)]GlcNAc(b1-3)GalNAc
# Outline: as §1
# [12] = biological target: Neu5Ac(a2-3)Gal(b1-4)[Fuc(a1-3)]GlcNAc(b1-6)[Gal(b1-3)]GalNAc
# Outline: as §1
# [13] = biological target: Neu5Ac(a2-3)Gal(b1-4)[Fuc(a1-3)]GlcNAc(b1-6)[Neu5Ac(a2-3)Gal(b1-3)]GalNAc
# Outline: as §1
# [14] = biological target: Neu5Ac(a2-3)Gal(b1-4)[Fuc(a1-3)]GlcNAc6S
# Outline: as §1
# [15] = biological target: Neu5Ac(a2-3)Gal6S(b1-4)GlcNAc
# Outline: as §1
# [16] = biological target: Neu5Ac(a2-3)Gal6S(b1-4)[Fuc(a1-3)]GlcNAc
# Outline: as §1
# [17] = biological target: Neu5Ac(a2-3)GalNAc
# Outline: as §1
# [18] = biological target: Neu5Ac(a2-3)GalNAc(b1-4)GlcNAc
# Outline: as §1
# [19] = biological target: Neu5Ac(a2-3)[GalNAc(b1-4)]Gal(b1-4)Glc
# Outline: as §1
# [20] = biological target: Neu5Ac(a2-3)[GalNAc(b1-4)]Gal(b1-4)GlcNAc
# Outline: as §1
# [21] = biological target: Neu5Ac(a2-3)[GalNAc(b1-4)]Gal(b1-4)GlcNAc(b1-3)GalNAc
# Outline: as §1
# [22] = biological target: Neu5Ac(a2-3)[Neu5Ac(a2-6)]GalNAc
# Outline: as §1
# [23] = biological target: Neu5Ac(a2-6)Gal
# Outline: as §1
# [24] = biological target: Neu5Ac(a2-6)Gal(b1-3)GlcNAc(b1-3)[Gal(b1-4)GlcNAc(b1-6)]Gal(b1-4)Glc
# Outline: as §1
# [25] = biological target: Neu5Ac(a2-6)Gal(b1-4)Glc
# Outline: as §1
# [26] = biological target: Neu5Ac(a2-6)Gal(b1-4)GlcNAc
# Outline: as §1
# [27] = biological target: Neu5Ac(a2-6)Gal(b1-4)GlcNAc(b1-2)Man
# Outline: as §1
# [28] = biological target: Neu5Ac(a2-6)Gal(b1-4)GlcNAc(b1-2)Man(a1-3)Man(b1-4)GlcNAc(b1-4)GlcNAc
# Outline: as §1
# [29] = biological target: Neu5Ac(a2-6)Gal(b1-4)GlcNAc(b1-2)Man(a1-3)[Gal(b1-4)GlcNAc(b1-2)Man(a1-6)]Man(b1-4)GlcNAc(b1-4)GlcNAc
# Outline: as §1
# [30] = biological target: Neu5Ac(a2-6)Gal(b1-4)GlcNAc(b1-2)Man(a1-3)[GlcNAc(b1-2)Man(a1-6)]Man(b1-4)GlcNAc(b1-4)GlcNAc
# Outline: as §1
# [31] = biological target: Neu5Ac(a2-6)Gal(b1-4)GlcNAc(b1-2)Man(a1-3)[GlcNAc(b1-4)][Neu5Ac(a2-6)Gal(b1-4)GlcNAc(b1-2)Man(a1-6)]Man(b1-4)GlcNAc(b1-4)GlcNAc
# Outline: as §1
binder,measurement,setting,value
B1,glycan array binding signal (z-score),[1],1.23
same,glycan array binding signal (z-score),[2],-0.016
same,glycan array binding signal (z-score),[3],-0.483
same,glycan array binding signal (z-score),[4],0.359
same,glycan array binding signal (z-score),[5],-0.891
same,glycan array binding signal (z-score),[6],-0.115
same,glycan array binding signal (z-score),[7],-0.202
same,glycan array binding signal (z-score),[8],-0.138
same,glycan array binding signal (z-score),[9],-0.55
same,glycan array binding signal (z-score),[10],-0.094
same,glycan array binding signal (z-score),[11],0.882
same,glycan array binding signal (z-score),[12],-0.265
same,glycan array binding signal (z-score),[13],-0.98
same,glycan array binding signal (z-score),[14],0.416
same,glycan array binding signal (z-score),[15],-0.481
same,glycan array binding signal (z-score),[16],-0.271
same,glycan array binding signal (z-score),[17],1.05
same,glycan array binding signal (z-score),[18],0.002
same,glycan array binding signal (z-score),[19],0.101
same,glycan array binding signal (z-score),[20],1.54
same,glycan array binding signal (z-score),[21],-1.24
same,glycan array binding signal (z-score),[22],-1.71
same,glycan array binding signal (z-score),[23],-1.08
same,glycan array binding signal (z-score),[24],0.389
same,glycan array binding signal (z-score),[25],-0.426
same,glycan array binding signal (z-score),[26],0.987
same,glycan array binding signal (z-score),[27],0.086
same,glycan array binding signal (z-score),[28],-0.517
same,glycan array binding signal (z-score),[29],0.708
same,glycan array binding signal (z-score),[30],-0.299
same,glycan array binding signal (z-score),[31],1.42

# Pulled one by one from the list above:
binder,measurement,setting,value
B1,glycan array binding signal (z-score),[22],-1.71
same,glycan array binding signal (z-score),[19],0.101
